Measurements reported in PubChem BioAssay AID602196 (INSERM, 2012)
Purpose: 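Modifiers of cisplatin sensitivity in A549 cells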. System: human A549 lung cancer cells. Knock-down reagent: siRNA pair against human genes. Time to read-out: 48 h transfection before cisplatin; time from cisplatin to read-out not stated. Challenge: cisplatin at a dose killing half of control-siRNA cells; exact dose and duration not given. Detection: 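Cisplatin cell death as a shift from the 50% death seen with control siRNA; siRNAs toxic or growth-blocking alone scored 0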. Reading the numbers: two-siRNA summed score (-2 to +2): higher = both siRNAs protect from cisplatin killing; -2 means both sensitise; mean protection from cisplatin (shift in death): higher = protection from cisplatin killing. Hit rule: 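Each siRNA scores 0 if harmful alone by LDH or WST-1, otherwise +1 if it reduces and -1 if it increases cisplatin killing; a gene is active when both siRNAs agree (sum +2 or -2)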. Meaning of the calls: active = both siRNAs shift cisplatin killing the same way; inactive = no consistent shift, or siRNA harmful alone.
This is a random part of about 23,000 reagents tested. 455 of all reagents (2%) count as active. 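Active includes both protection and sensitisation; some change values fall well beyond the stated -50 to +50 range.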 Entries without a mark were called inactive. Further read-outs or replicates are left out here. Not stated in the record: the amount of reagent.

| gene symbol | two-siRNA summed score (-2 to +2) | mean protection from cisplatin (shift in death) (%) |
| --- | --- | --- |
| GSPT2 (GeneID 23708) | 0 | 0.1 |
| PTPN12 (GeneID 5782) | 0 | -0.8 |
| WFDC8 (GeneID 90199) | 0 | 10.3 |
| OR4C16 (GeneID 219428) | 1 | 8.2 |
| FLJ33534 (GeneID 285150) | 1 | 17.8 |
| LIN52 (GeneID 91750) | 1 | 6.1 |
| NPAS1 (GeneID 4861) | -1 | -15.5 |
| GADD45GIP1 (GeneID 90480) | 1 | 6.9 |
| RGS9BP (GeneID 388531) | 0 | 17.3 |
| PSMD1 (GeneID 5707) | -1 | 0.2 |
| OR8U1 (GeneID 219417) | 0 | -4 |
| LOC389288 | 0 | 6.5 |
| HDDC3 (GeneID 374659) | 0 | 13.7 |
| PRPS2 (GeneID 5634) | 1 | 1.1 |
| MRRF (GeneID 92399) | 0 | 2.1 |
| PCDHGA5 (GeneID 56110) | 0 | 6.6 |
| B4GALNT2 (GeneID 124872) | 0 | 19.3 |
| GATB (GeneID 5188) | 0 | -2.2 |
| GPT2 (GeneID 84706) | 0 | -7.7 |
| LOC442204 | 1 | 12.3 |
| LOC401282 | 0 | 11.5 |
| ANO6 (GeneID 196527) | 0 | 11.6 |
| LOC400708 | 0 | -1.6 |
| PRDX5 (GeneID 25824) | 0 | 10.7 |
| TRMT1L (GeneID 81627) | 0 | 3.1 |
| MBD3 (GeneID 53615) | 0 | -15.9 |
| LOC402617 | 1 | 12.1 |
| ALDH3B1 (GeneID 221) | 0 | -8.6 |
| PILRA (GeneID 29992) | 0 | 10 |
| AKR1C2 (GeneID 1646) | 0 | -1.7 |
| MCPH1 (GeneID 79648) | 0 | -2.5 |
| FOXF1 (GeneID 2294) | 0 | -7.1 |
| SLC41A2 (GeneID 84102) | 0 | 12.8 |
| GLIDR (GeneID 389741) | 0 | 10.1 |
| LOC442037 | 1 | 15 |
| SLC34A1 (GeneID 6569) | -1 | -7.8 |
| HSPD1 (GeneID 3329) | 0 | 4 |
| GABRA6 (GeneID 2559) | 1 | 2 |
| LPAR4 (GeneID 2846) | -1 | -14 |
| COPG1 (GeneID 22820) | 0 | -11.1 |
| DDX21 (GeneID 9188) | 0 | -4.1 |
| WDR74 (GeneID 54663) | 0 | -6.1 |
| PCSK1N (GeneID 27344) | -1 | -27.6 |
| DUSP3 (GeneID 1845) | 1 | 2.5 |
| UST (GeneID 10090) | 0 | -3.2 |
| LOC387846 | 0 | 4 |
| SPATA3 (GeneID 130560) | 0 | 3.8 |
| UBL3 (GeneID 5412) | 0 | -3.6 |
| CYGB (GeneID 114757) | 1 | 3.6 |
| ENKUR (GeneID 219670) | 0 | -6.3 |
| NEU3 (GeneID 10825) | 0 | 5.4 |
| LOC342994 | 0 | 27.8 |
| MED27 (GeneID 9442) | -1 | 4.7 |
| CDC50B (GeneID 161291) | 0 | 5.3 |
| MGC27277 | 0 | -2.2 |
| RPA3P1 (GeneID 442058) | 0 | 4.1 |
| HRH2 (GeneID 3274) | 1 | 13.9 |

Reprinted from the entries so far, 2 entries:
| gene symbol | two-siRNA summed score (-2 to +2) | mean protection from cisplatin (shift in death) (%) |
| --- | --- | --- |
| LOC342994 | 0 | 27.8 |
| MED27 (GeneID 9442) | -1 | 4.7 |
